T. brucei: 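Whole-parasite assay of Trypanosoma brucei over 72 hours; the read-out is not stated. Tested at 30 µM. The record gives no direction; compounds that gave an IC50 in retests scored well above the rest, so higher reads as stronger inhibition. Values scatter widely below zero; nearly all retest evidence comes from the higher of the two concentrations used. Size under these conditions: about 64,000 compounds, about 940 of them at 50% or above in at least one test.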
Toxoplasma: 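Assay of Toxoplasma gondii numbers, read through their beta-galactosidase reporter with a colour substrate. Compounds at 10 µM. The record gives no direction; the compounds picked for IC50 retests had high values, so higher reads as fewer parasites. Of about 67,000 compounds tested this way, about 260 (0.38%) reached 50% or more in at least one test.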

Values are the deposited “Percent Effect”, in %. The controls that fix the scale are not given in the record; negative values are as filed. Compounds were drawn at random from those tested, without regard to their results. A dash means the value is not listed here; it may have been measured.

structure,T. brucei,Toxoplasma
Cc1ccsc1[C@@H]1CCN(C(=O)CCc2nc3ccccc3[nH]2)C[C@H]1O,-29.54,-1.989
COc1ccc(-c2csc(N)c2C#N)cc1,-33.61,-43.59
[H][C@]12CC[C@]([H])(CN(C(=O)c3cccnc3)C1)N(Cc1ncc[nH]1)C2,-65.88,0.3284
Cc1csc(C(Cc2ccsc2)NC(=O)Cn2cccnc2=O)n1 (stereo not drawn),-6.774,14.52
O=C(O)C(F)(F)F.O=C(O)C(F)(F)F.[H][C@@]12CN(C(=O)c3ccsc3)C[C@]1([H])OCCN2CCN1CCCC1,-142.2,-8.779
CCC(=O)N1CCN(C)C(=O)C(Cc2ccccc2-c2cccs2)C1 (stereo not drawn),-,2.519
CNC(=O)C(C)(C)NC(=O)c1cc(OCC2CCC2)cc(C(=O)OC)c1,-55.34,-4.488
COc1cc(C(=O)Nc2nc(C)no2)ccc1C,38.15,-
COc1nc2c(cc1C(=O)N1CCCOC(Cn3cccn3)C1)CCC2 (stereo not drawn),-45.66,-4.139
O=C(O)C(F)(F)F.[H][C@]12CCC(=O)N(CC3CCOCC3)[C@@]1([H])CCN2Cc1c(C)noc1C,-52.09,15.3
CCCc1nc(C)cc(NC(C)Cc2cnccn2)n1 (stereo not drawn),-,-28.33
CC(=O)N1CCN([C@@H]2CN(C(=O)c3ccccc3C)C[C@H]2O)CC1,-,19.38
Nc1cc(-c2cccs2)nn(CC(=O)NCC2CCCCC2)c1=O,-0.1727,12.96
Cc1cc(CC(C)NC(=O)c2n[nH]c3c2CCC3)n[nH]1 (stereo not drawn),1.889,-18.54
CNC(=O)CN(C)S(=O)(=O)c1c(Br)cc2[nH]c(=O)oc2c1Cl,-7.669,2.434
Cc1ncsc1C(=O)N(C)CCc1ccncc1,-31.37,-6.775
CC(C)CCn1nc2ccc(S(=O)(=O)N3CCOCC3)cn2c1=O,-12.27,-1.434
CCCOC1CCCN(C(=O)c2cc(CN(CC)CC)c(CC)o2)C1 (stereo not drawn),-19.9,22.94
CCN(CC)CC(=O)Nc1ccc(-n2ccc(C(N)=O)n2)cc1,-22.5,4.765
O=C(O)C(F)(F)F.[H][C@]12CCN(CCOC)[C@@]1([H])CC[C@@H](COCc1csc(C)n1)O2,-23.65,13.57
CC1(C)OCC2(CO1)CN(C(=O)c1cccc3ccccc13)C2,11.1,8.237
Cc1sc2nc(C(F)(F)F)nc(N3CCN(C)CC3)c2c1C,-21.14,-6.068
Cc1cc(C)nc(N2CCC(C(=O)Nc3ncc[nH]3)CC2)n1,-11.12,10.47
Cc1cccnc1NCCNc1cc(C(C)C)nc2ccnn12,-8.057,-3.044
O=C(O)C(F)(F)F.O=C(O)C(F)(F)F.O=C(O)C(F)(F)F.[H][C@@]12COC[C@]1(CN(C)C)CN(Cc1ccccn1)C2,-9.324,-1.372
CN1CCN(c2ccc3ccc(C(=O)N4CCCO4)cn23)CC1.O=C(O)C(F)(F)F,-38.28,9.028
CC(C)COC(C)C(=O)N1CCCCC1 (stereo not drawn),-28.74,-1.001
OCCc1ncnn1Cc1cccc(Cl)c1,-26.2,10.75
Cc1cnc(N2CCOC3(CCCN(C)C3)C2)nc1.O=C(O)C(F)(F)F (stereo not drawn),-,-10.47
CCN(c1cc(C)cc(C)c1)S(=O)(=O)c1cc(C(=O)O)cs1,9.028,-5.034
Cc1cc(C(F)(F)F)nc(CCNC(C)Cn2ccnc2)n1 (stereo not drawn),-48.3,-10.01
CC(C)n1[nH]c(=O)c2c1NC(=O)CC2c1cccc2cccnc12 (stereo not drawn),-51.85,3.983
CSc1cccc(CN(C)C(=O)Cn2ncc(N3CCCC3)cc2=O)c1,3.177,10.75
COCc1nc(C(=O)NS(=O)(=O)c2ccc(F)cc2F)cs1,-6.38,8.294
CNC(=O)COc1ccc(CNc2c(Cl)cccc2C#N)cc1,3.572,7.722
CC(NCCn1cccn1)c1ccccc1F (stereo not drawn),-12.89,-4.365
CCc1c(C)sc2c1c(N)nc(=O)n2CCN(C)C,-50.08,16.7
CC(C)CCNc1c(C#N)c2c(c3nncn13)CN(C)CC2,0.9844,13.78
Cc1c(Cl)cccc1S(=O)(=O)N1CCC(S(=O)(=O)c2nncn2C)CC1,4.349,8.047
CC(C)C[C@H](NC(=O)CNC(=O)OC(C)(C)C)C(=O)OC(C)(C)C,-22.52,-4.11
Cc1nc(CN2CCCN(CC(=O)N(C)C(C)(C)C#N)CC2)no1,-26.79,-3.666
Cc1oncc1C(=O)N1CCC2(CC1)CC(c1ccccc1)C(=O)N2C (stereo not drawn),-4.896,-0.5342
OC[C@H]1CN(Cc2c(Cl)cncc2Cl)C[C@H]1CN1CCCCCC1,-109.1,-5.94
O=C(O)C(F)(F)F.O=C(c1cscn1)N1CCC2(CN(Cc3ccoc3)C2)C1,-0.0789,3.033
Cc1nc(S(=O)(=O)CCn2cccn2)n(C2CCCCC2)c1C,-8.888,6.261
CNc1nc2c(s1)C(c1ccc(Cl)cc1Cl)CC(=O)N2 (stereo not drawn),-3.582,-9.066
CC(=O)NCCNC(=O)CN1CCN(Cc2nccn2C)C(C)C1 (stereo not drawn),9.104,6.031
O=C(O)C(F)(F)F.[H][C@@]12CCN(c3cccnc3)C[C@]1([H])CN(C(=O)c1cccc(C)c1)C2,1.381,-0.1664
Cl.Cl.Cl.c1cnc(NCc2cncc3c2CCN(Cc2cccnc2)C3)nc1,-9.548,6.706

The last 4 entries again:

{"structure": "CNc1nc2c(s1)C(c1ccc(Cl)cc1Cl)CC(=O)N2", "stereo": "stereo not drawn", "T. brucei": -3.582, "Toxoplasma": -9.066}
{"structure": "CC(=O)NCCNC(=O)CN1CCN(Cc2nccn2C)C(C)C1", "stereo": "stereo not drawn", "T. brucei": 9.104, "Toxoplasma": 6.031}
{"structure": "O=C(O)C(F)(F)F.[H][C@@]12CCN(c3cccnc3)C[C@]1([H])CN(C(=O)c1cccc(C)c1)C2", "T. brucei": 1.381, "Toxoplasma": -0.1664}
{"structure": "Cl.Cl.Cl.c1cnc(NCc2cncc3c2CCN(Cc2cccnc2)C3)nc1", "T. brucei": -9.548, "Toxoplasma": 6.706}

Source: ChEMBL document CHEMBL3988442, “University of Dundee, Small-Polar-MMV Screening Library” (2021).